In PubChem BioAssay AID328 (DTP/NCI, 2004):
The list shows only some results of the screen, not a fair sample: its compounds were picked by chemical class. Not every dose and run of a compound is shown. T/C is the treated group as % of the vehicle group. Where survival is the endpoint, the PubChem record calls one and a half times the control and up active, and a quarter to a half above the control has no call in these data; cut-offs in other NCI protocols can differ. Some T/C values are marked as having no survivor count here; that says nothing about deaths at the dose. Schedule codes are those of the source, taken here to give the interval after Q, in days (D) or hours (H), and the number of doses after X. Some entries were tested several times; the results are listed from low to high.

Test system: BDF1 mice, P388 leukemia ip, median survival T/C
Assay: NCI In Vivo Anticancer Drug Screen. Data for tumor model P388 Leukemia (intraperitoneal) in B6D2F1 (BDF1) mice
Settings: T/C endpoint: median survival time, higher T/C = longer survival
Summary of the method: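 Survival ratio, drug arm over vehicle arm, in mice with a transplanted tumour.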

[1] = dose: 0.5 mg/kg/injection, schedule: Q04DX003 (ip), vehicle: saline
[2] = dose: 1.0 mg/kg/injection, schedule: Q04DX003 (ip), vehicle: saline

With Cc1cccc(CN(CCCl)CCCl)c1 the T/C (dose: 0.63 mg/kg/injection, schedule: Q01DX009 (ip), vehicle: Klucel (hydroxypropylcellulose) (HPC)) was 148 % of control [survivor count not shown], the T/C (dose: 0.68 mg/kg/injection, schedule: Q01DX009 (ip), vehicle: Klucel (hydroxypropylcellulose) (HPC)) was 95 % of control [survivor count not shown] and the T/C (dose: 1.0 mg/kg/injection, schedule: Q01DX009 (ip), vehicle: Klucel (hydroxypropylcellulose) (HPC)) was 125 % of control [survivor count not shown]. For the same molecule, the T/C (dose: 1.25 mg/kg/injection, schedule: Q01DX009 (ip), vehicle: Klucel (hydroxypropylcellulose) (HPC)) was 149 % of control [survivor count not shown], the T/C (dose: 1.56 mg/kg/injection, schedule: Q01DX009 (ip), vehicle: Klucel (hydroxypropylcellulose) (HPC)) was 150 % of control [survivor count not shown] and the T/C (dose: 2.5 mg/kg/injection, schedule: Q01DX009 (ip), vehicle: Klucel (hydroxypropylcellulose) (HPC)) was 158 [survivor count not shown] and 170 % of control [survivor count not shown]. For the same molecule, the T/C (dose: 2.5 mg/kg/injection, schedule: Q01DX009 (ip), vehicle: saline) was 105 % of control [survivor count not shown], the T/C (dose: 3.12 mg/kg/injection, schedule: Q01DX009 (ip), vehicle: Klucel (hydroxypropylcellulose) (HPC)) was 150 % of control [survivor count not shown] and the T/C (dose: 4.17 mg/kg/injection, schedule: Q01DX009 (ip), vehicle: Klucel (hydroxypropylcellulose) (HPC)) was 170 % of control [survivor count not shown]. For the same molecule, the T/C (dose: 5.0 mg/kg/injection, schedule: Q01DX009 (ip), vehicle: Klucel (hydroxypropylcellulose) (HPC)) was 170 [survivor count not shown] and 197 % of control [survivor count not shown], the T/C (dose: 5.0 mg/kg/injection, schedule: Q01DX009 (ip), vehicle: saline) was 104 % of control [survivor count not shown] and the T/C (dose: 6.25 mg/kg/injection, schedule: Q01DX009 (ip), vehicle: Klucel (hydroxypropylcellulose) (HPC)) was 155 [survivor count not shown] and 175 % of control [survivor count not shown]. For the same molecule, the T/C (dose: 9.2 mg/kg/injection, schedule: Q01DX009 (ip), vehicle: Klucel (hydroxypropylcellulose) (HPC)) was 108 % of control [survivor count not shown], the T/C (dose: 9.37 mg/kg/injection, schedule: Q01DX009 (ip), vehicle: Klucel (hydroxypropylcellulose) (HPC)) was 190 % of control [survivor count not shown] and the T/C (dose: 10.0 mg/kg/injection, schedule: Q01DX009 (ip), vehicle: saline) was 103 % of control [survivor count not shown]. The T/C (dose: 20.0 mg/kg/injection, schedule: Q01DX009 (ip), vehicle: saline) was 108 % of control [survivor count not shown].

For BrCCN(CCBr)c1ccc2c(c1)Cc1ccccc1-2, the T/C (dose: 0.59 mg/kg/injection, schedule: Q01DX009 (ip), vehicle: saline with Tween-80) was 119 % of control [survivor count not shown], the T/C (dose: 0.88 mg/kg/injection, schedule: Q01DX009 (ip), vehicle: saline with Tween-80) was 169 % of control [survivor count not shown] and the T/C (dose: 1.33 mg/kg/injection, schedule: Q01DX009 (ip), vehicle: saline with Tween-80) was 150 % of control [survivor count not shown]. The T/C (dose: 1.78 mg/kg/injection, schedule: Q01DX009 (ip), vehicle: saline with Tween-80) was 154 % of control [survivor count not shown], the T/C (dose: 2.0 mg/kg/injection, schedule: Q01DX009 (ip), vehicle: saline with Tween-80) was 146 % of control [survivor count not shown] and the T/C (dose: 2.2 mg/kg/injection, schedule: Q01DX009 (ip), vehicle: saline with Tween-80) was 164 % of control [survivor count not shown]. The T/C (dose: 2.66 mg/kg/injection, schedule: Q01DX009 (ip), vehicle: saline with Tween-80) was 194 % of control [survivor count not shown], the T/C (dose: 3.3 mg/kg/injection, schedule: Q01DX009 (ip), vehicle: saline with Tween-80) was 207 % of control [survivor count not shown] and the T/C (dose: 4.0 mg/kg/injection, schedule: Q01DX009 (ip), vehicle: saline with Tween-80) was 187 % of control [survivor count not shown]. For the same molecule, the T/C (dose: 5.0 mg/kg/injection, schedule: Q01DX009 (ip), vehicle: saline with Tween-80) was 191 % of control [survivor count not shown], the T/C (dose: 5.33 mg/kg/injection, schedule: Q01DX009 (ip), vehicle: saline with Tween-80) was 196 % of control [survivor count not shown] and the T/C (dose: 6.0 mg/kg/injection, schedule: Q01DX009 (ip), vehicle: saline with Tween-80) was 208 % of control [survivor count not shown]. The T/C (dose: 7.5 mg/kg/injection, schedule: Q01DX009 (ip), vehicle: saline with Tween-80) was 216 % of control [survivor count not shown], the T/C (dose: 8.0 mg/kg/injection, schedule: Q01DX009 (ip), vehicle: saline with Tween-80) was 219 % of control [survivor count not shown] and the T/C (dose: 12.0 mg/kg/injection, schedule: Q01DX009 (ip), vehicle: saline with Tween-80) was 226 % of control [survivor count not shown]. For the same molecule, the T/C (dose: 16.5 mg/kg/injection, schedule: Q01DX009 (ip), vehicle: saline with Tween-80) was 165 % of control [survivor count not shown], the T/C (dose: 18.0 mg/kg/injection, schedule: Q01DX009 (ip), vehicle: saline with Tween-80) was 245 % of control [survivor count not shown] and the T/C (dose: 25.0 mg/kg/injection, schedule: Q01DX009 (ip), vehicle: saline with Tween-80) was 192 % of control [survivor count not shown]. The T/C (dose: 37.5 mg/kg/injection, schedule: Q01DX009 (ip), vehicle: saline with Tween-80) was 215 % of control [survivor count not shown], the T/C (dose: 100.0 mg/kg/injection, schedule: Q04DX003 (ip), vehicle: Klucel (hydroxypropylcellulose) (HPC)) was 140 % of control [survivor count not shown] and the T/C (dose: 200.0 mg/kg/injection, schedule: Q04DX003 (ip), vehicle: Klucel (hydroxypropylcellulose) (HPC)) was 151 % of control [survivor count not shown]. The T/C (dose: 400.0 mg/kg/injection, schedule: Q04DX003 (ip), vehicle: Klucel (hydroxypropylcellulose) (HPC)) was 196 % of control [survivor count not shown].

ClCCN1CCN(CCCl)CC1 was tested, and the T/C (dose: 0.25 mg/kg/injection, schedule: Q01DX009 (ip), vehicle: saline) was 131 % of control [survivor count not shown], the T/C (dose: 0.5 mg/kg/injection, schedule: Q01DX009 (ip), vehicle: saline) was 109 [survivor count not shown] and 200 % of control [survivor count not shown] and the T/C [1] was 116 [survivor count not shown] and 209 % of control [survivor count not shown]. The T/C (dose: 1.0 mg/kg/injection, schedule: Q01DX009 (ip), vehicle: saline) was 104 [survivor count not shown] and 240 % of control [survivor count not shown], the T/C [2] was 170 [survivor count not shown] and 231 % of control [survivor count not shown] and the T/C (dose: 2.0 mg/kg/injection, schedule: Q04DX003 (ip), vehicle: saline) was 200 % of control [survivor count not shown].

In the case of C[N+](CCCl)(CCCl)Cc1ccc([N+](=O)[O-])cc1, the T/C (dose: 0.25 mg/kg/injection, schedule: Q04DX003 (ip), vehicle: saline) is reported as 95 % of control [survivor count not shown], the T/C [1] is reported as 105 % of control [survivor count not shown] and the T/C [2] is reported as 110 % of control [survivor count not shown]. For the same molecule, the T/C (dose: 3.13 mg/kg/injection, schedule: Q04DX003 (ip), vehicle: saline with Tween-80) was 109 % of control [survivor count not shown], the T/C (dose: 6.25 mg/kg/injection, schedule: Q04DX003 (ip), vehicle: saline with Tween-80) was 113 % of control [survivor count not shown] and the T/C (dose: 12.5 mg/kg/injection, schedule: Q04DX003 (ip), vehicle: saline with Tween-80) was 145 % of control [survivor count not shown]. The T/C (dose: 100.0 mg/kg/injection, schedule: Q04DX003 (ip), vehicle: saline with Tween-80) was 136 % of control [survivor count not shown].

For CN(C)c1ccc(N(CCCl)CCCl)cc1, the T/C (dose: 6.25 mg/kg/injection, schedule: Q01DX001 (ip), vehicle: saline) was 142 % of control [survivor count not shown], the T/C (dose: 12.5 mg/kg/injection, schedule: Q01DX001 (ip), vehicle: saline) was 145 % of control [survivor count not shown] and the T/C (dose: 25.0 mg/kg/injection, schedule: Q01DX001 (ip), vehicle: saline) was 106 % of control [survivor count not shown].
